The assay addresses avidin-cynoIL-1R1-FLAG with mutation 10.1 (human residue) (cynomolgus). The experiment in a line: multiplexed bead-based assay (Luminex MFI), antibody 25 ug/ml, normalised to anti-FLAG.

Data on 1 molecule can be found in patent US20040097712A1 (Amgen, published 2004).

No constants are given. Whether binding was seen depends on the method and setting. Binding calls can cover weak binding; strength is not graded here.

B1: 15C4 human anti-IL-1R1 monoclonal antibody (purified from hybridoma supernatant) (antibody, V domains shown)
VH: EVQLMQSGAEVKKPGESLKISCKGSGYSFSFHWIAWVRQMPGKGLEWMGIIHPGASDTRYSPSFQGQVTISADNSNSATYLQWSSLKASDTAMYFCARQRELDYFDYWGQGTLVTVSS
VL: EIVLTQSPDFQSVTPKEKVTITCRASQSIGSSLHWYQQKPDQSPKLLIKYASQSFSGVPSRFSGSGSGTDFTLTINSLEAEDAAAYYCHQSSSLPLTFGGGTKVEIK
notes: Human IgG kappa from HuMab mice
In the case of B1, the binding result was “binds”.
